The RNAGym collection of RNA variant scans (doi:10.1126/science.aae0568)
Variants at the floor of the assay are shown more often than the library holds them.

B1: tRNA (parent)
chain: GUUCCGUUGGCGUAAUGGUAACGCGUCUCCCUCCUAAGGAGAAGACUGCGGGUUCGAGUCCCGUACGGAACG

Variants of: B1
Experiment: yeast fitness relative to wild type (ratio to wild type); higher = fitter; tRNA-Arg(CCU), competitive growth, 37 C, YPD
How it was run: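 For this measurement, the tRNA-Arg(CCU) gene was varied by chemical synthesis at a 3% per-site mutation rate across 69 sites, and each variant was placed at the native genomic locus in Saccharomyces cerevisiae. The pooled strains went through a 24-hour competition in YPD at 37°C in six parallel replicates, with amplicons from start and end populations read by 100-nucleotide paired-end sequencing. Darwinian fitness relative to wild type followed from the change in each genotype's frequency. Genotypes needed ≥ 100 starting reads, and estimates < 0.5 were set to 0.5.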
With GUCCCGUUGGCGUAAUGGUAACGCGUCUCCCUCCAAAGGUGUAGACUGCGGGUUGGAGUCCCGUACGGAACG [U3C U35A A40U A42U C55G] the yeast fitness was no more than 0.5. Work on GUUCCGUUGGCGUAAUGGUAACCCGUCUCGCUCCUAAGGAGAAGACUGCGGGUUCGAGUCCCGUACGGAACG [G23C C30G] yielded a yeast fitness of 0.511. GUUACGUUAGCGUAAUGCUAAAGCGUCUCCCUCCUAAGGAGAAGACUGCGGGUUCGAGUCCCGUACGGCACG [C4A G9A G18C C22A A69C] gave a yeast fitness of no more than 0.5. In the case of GUUCCGUUGGCGUAAUGCUAACGCGCCUCCCUCUUAAGGAGAAGACUGCGGGUUCGAGUCCCGUACGGAACG [G18C U26C C34U], the yeast fitness is reported as no more than 0.5. In the case of GUUCCGUUGGUGUAAUGGUAACGCGUCUCACUCCUAAGGAGAAGACAGCGGGUUCGAGUCCCUUACGGAACG [C11U C30A U47A G63U], the yeast fitness is reported as no more than 0.5. With GUUCCGUUGGCGUAAUGGUAACGCGUCUCCCUCCUAUGGAGAAGACUCCGGGUUCGGGUCCCGUACGCAACG [A37U G48C A57G G68C] the yeast fitness was no more than 0.5. With GUUCCGUUAGGGUAAUGGUAACGCGUCUCCCUCCUAAGGAGAAGACCGCGGGUUUGAGUCCCGUACGCAACG [G9A C11G U47C C55U G68C] the yeast fitness was no more than 0.5. GUUCCGUUGGCGACAUGGUAAAGCGUCUCCCUCCUAAGGAGAAGACUCCGGGUUCGAGUCCCGUACGGCACG [U13A A14C C22A G48C A69C] gave a yeast fitness of no more than 0.5. With GCUCCAUUGGCGUAAUGGUAACGCGUCUCCCUCCUAAGGAGAAGACUGCGGGUUCGAGUCGCGUACGGAACG [U2C G6A C61G] the yeast fitness was no more than 0.5. GUUCCGUUGGCGUAAUGGUAAAGCGUCUCCCUCCUAAGGAGAAGACUGCGGGUUCGAGUACUGUACGGAACG [C22A C60A C62U] showed a yeast fitness of no more than 0.5. Variant GUCCCGUUGGCGUAAUGGUAACGCGUCUCCCUCCUAACGUGAAGACUGCGAGUUCGAGUUCCGUACGAAACG [U3C G38C A40U G51A C60U G68A] has a yeast fitness of no more than 0.5. Variant GUUCCGAUGGCGUAAUGGUAACGCGUCUCCCUCCUAAGGAGUAGACUGCGGGUUCGCGUCUCGUUCGGAACG [U7A A42U A57C C61U A65U] has a yeast fitness of no more than 0.5. GUUCCGUUGGCGUAAUGGUUUCGCGUCUCCCUCCUAAGGAGAAGACUGCGGGUUCGAGUCCCGUACGGAACG [A20U A21U] gave a yeast fitness of 0.61. Variant GUUGCGUUGGCGUAAUGGUAACGCGUCUCCCUCCUAAGGAGAAGACUGAGGGUUCGAGUCCCGUACGGCACG [C4G C49A A69C] has a yeast fitness of no more than 0.5. GUUCUGUUGGCGUCAUGGUAACGCGUCUCCCUCCUAAGGACACGACUGCGGGUUCGAGUCCCGUACGGAACG [C5U A14C G41C A43C] gave a yeast fitness of no more than 0.5. GUUCCGAUGGCGUAAUGGUAACGCGUCUCCCUCGUAAGGAGAAGACUGCGGGAUCGAGUCCCGUACGGAUCG [U7A C34G U53A A70U] showed a yeast fitness of no more than 0.5. In the case of GUUCCGUUGGCGUAAUGGUAACGCGUCCCCCUCUUCAGGAGAAGACUGCGGGUUCGAGUCCCGUACCGAACG [U28C C34U A36C G67C], the yeast fitness is reported as no more than 0.5. In the case of GUUUCGCUGGCGUACGGGUAACGCGUCUCCCUCCUAAGGAGAAGACUGCGGGUUCGAGUCCCGUACGGAACG [C4U U7C A15C U16G], the yeast fitness is reported as no more than 0.5. GUUCCGUUGGCGUAAUGGUAGAGCGUCUCCCUCCUAGGGAGUAGACUGGGGGUUCGUGUCCCGUACGGAACG [A21G C22A A37G A42U C49G A57U] showed a yeast fitness of no more than 0.5. With GUUCCGUUGGCGUAAUGGUAACGCGUCUCCAUUCUAAGCAGAAGACUGCGGGUUCGAGUCCCGUACGGAACG [C31A C33U G39C] the yeast fitness was no more than 0.5. With GUUCCGUUGGGGUAAAGGUAACCCGUCUCCCUCCUAAGGAGAAGACUGCGGGUUCGAGUCGCGUACGGAACG [C11G U16A G23C C61G] the yeast fitness was no more than 0.5. GUUCCGUGGGCGUAAUGGUCACGCGUCUCCCUCCCAAGGAGAAGACUGAGGGUUCGAGUCCCGUACAGAACG [U8G A20C U35C C49A G67A] gave a yeast fitness of no more than 0.5. GUUCCGUUGGCGUAAGGGUACCGCAUCUCCCUCCUAAGGAGAGGACUGCGGGUUCGAGACCCGUACGGAACG [U16G A21C G25A A43G U59A] showed a yeast fitness of no more than 0.5. In the case of GUUUCGUUGGCGUGCUGGUAACGCGUCUCCCUCCUAGGGAGAAGACUGCGGGUUCGAGUCUCGUACGGAACG [C4U A14G A15C A37G C61U], the yeast fitness is reported as no more than 0.5. GUUCCGUUGGGGUAAGGGUAACGCGUCUCCCUCCUAACGAGAAGACUGCGGGUACGAGUCCCGUACGCAACG [C11G U16G G38C U54A G68C] gave a yeast fitness of no more than 0.5. With GUUCCGCUGGCGUAAUGGAAACGCGUCUCCCUCCUAAGGAGAAGACUGCGGGUUCGAGUCCAGUACGGAACG [U7C U19A C62A] the yeast fitness was no more than 0.5. With GUUCCGUUGGCGAAAUGGUACCGCGUCUCCCUCCCAAGAAGCGGAUUGCGGGUUCGAGUCCCGUCCGGAACG [U13A A21C U35C G39A A42C A43G C46U A65C] the yeast fitness was 0.55. Work on GUUCCGUUGGCGUACUGGUCACGCGUCUCCCUCCUAAGGAGAAGACUGCGGGUUUGAGUCCCGUACGGAACG [A15C A20C C55U] yielded a yeast fitness of no more than 0.5. GUUCCGUUUGCGUAAUGGUAACGGGUCUCCCUCCUAAGGAGAAGACUGCGGGUUUGAGUCCCGUACAGAACG [G9U C24G C55U G67A] showed a yeast fitness of no more than 0.5. With GUUCCGUUAGCGUAAUGGUAACGCGUCUCCCUCCUAAGGAGAAAAUUGCGGGUUCGAGUCCCGUACGGCACG [G9A G44A C46U A69C] the yeast fitness was 0.787. GGUCCAUUGGCGUAAUGGUAACCCGUCUCCCUCCUAAAGAGAAGACUGCGGGUUCGACUCCCGUACGGAGCG [U2G G6A G23C G38A G58C A70G] showed a yeast fitness of no more than 0.5. With GUUCCGUUGGCGAAAUAGUAACGCGUCUCCCUCCUAAGGAGAAGACUGCCGGUUCGAGUCCCGUACGGAACG [U13A G17A G50C] the yeast fitness was no more than 0.5. In the case of GUUCCGUUGGCGAAAUGGUAACGCGUUUCCCUCCUAAGGAGAAGACUGCGGGUUCGAGUCACGUACGGAACG [U13A C27U C61A], the yeast fitness is reported as 0.619. GUUCCAUUGGCGUAAUGGUAACGCGUCUCCCUCCUAAGGAGAGGACUACGGGUUGGAGUUCCGUACGGAACG [G6A A43G G48A C55G C60U] showed a yeast fitness of no more than 0.5. For GUUCCGUUGGCGUAAUAGUAACGAGUCCCCCUCCUAAGGAGAAGACUGCGGGAUCGAGUCCCGUACGGAACG [G17A C24A U28C U53A], the yeast fitness was no more than 0.5. GUUCCGUUGGCGUAAUGGUAACGCGUUUCCCUCCUACGGAGAAGACUGCGGGUUCGAGUGCCGUGCGGAACG [C27U A37C C60G A65G] showed a yeast fitness of no more than 0.5. In the case of GUUCGGUUGGCGUUAUGGUAACGCGUCUCCCUCUUAGGGAGAAGACAGCGGGUUCGAGUCCCGUACGGAACG [C5G A14U C34U A37G U47A], the yeast fitness is reported as no more than 0.5. In the case of GAUCCGUUGGCGUAAGGGUAACGCGUCUCCCUCCUAAGGAGAAGACUGGGGGUUCGAGUCCCGUACGGAACG [U2A U16G C49G], the yeast fitness is reported as 0.705.
